Experimental data as given in patent publication US8206983B2, “In vitro methods for the induction and maintenance of plant cell lines as single suspension cells with intact cell walls” (Dow AgroSciences, LLC., priority 2006, dated 2012).

Tested on: BY2 suspension cells
Experiment: Effects of colchicine on growth and cell separation of BY2 suspension cells
Assay type: cell-based, tobacco
Excerpt: BY2 suspension-cultured cells were obtained from Japan tobacco and maintained in LSBY2 medium in a 7 day cycle. Jimsonweed suspension and Pettite Havana tobacco suspensions were initiated from callus initiated at DAS and Xanthi suspensions were procured as a sample from Professor Jack Widholm from UIUC, IL. JT-NT1 suspension cells, obtained from Washington University that are maintained in NT1B medium in 7 day cycle were used only for the pectin degradation enzyme study to separate the cells into single cells. The cells were cultured in shake flasks at 25-28° C. in dark on orbital shakers at 150 rpm. […] The NT-1 cell line is widely used and readily available; though, any tobacco suspension cell line is consistent with the practice of the invention. […]
Cell expansion and separation were observed by light microscopy (with Nomarski and dark field optics). Spherical cells and single cells were counted by using a hemacytometer to determine the degree of cell expansion and separation, respectively. Cell numbers in aggregates were determined by treating with 5% (wt/vol) chromium trioxide for 16 hr and counting cells (Henshaw et. al, 1966). Cell viability was determined by staining cells (Yokoyama et. al, 1997) with fluorescein diacetate (FDA) and propidium iodide (PI) using a fluorescent microscope (Zeiss Photomicroscope). […]

COc1cc2c(c(OC)c1OC)-c1ccc(OC)c(=O)cc1[C@@H](NC(C)=O)CC2 [Colchicine]
cell swelling first observed: 3 days
time of continuous growth in the presence of colchicine (1 mM): at least 14 days
